Source: paper PMC7819943, “Rice protein-binding microarrays: a tool to detect cis-acting elements near promoter regions in rice”
The other results are listed elsewhere or left out.

The sequences below were run against T1, OsSMF1 (Oryza sativa, UniProt Q6ZLB0 1-436) (assay: protein-binding microarray (RPBM); PBS, 2% BSA, 51.3 ng/ul salmon testes DNA, 50 uM zinc acetate, 200 nM TF, 25 C, 1 h; high values mean tight binding). Conditions: protein: recombinant; tags: N-terminal polyhistidine and DsRed monomer fusion (pET32a); chain copies: 2; label: CyDye5-dUTP incorporated in the synthesized complementary strand; 3' TTTTT single-stranded linker to array surface; dsDNA, one strand shown.
T1 sequence: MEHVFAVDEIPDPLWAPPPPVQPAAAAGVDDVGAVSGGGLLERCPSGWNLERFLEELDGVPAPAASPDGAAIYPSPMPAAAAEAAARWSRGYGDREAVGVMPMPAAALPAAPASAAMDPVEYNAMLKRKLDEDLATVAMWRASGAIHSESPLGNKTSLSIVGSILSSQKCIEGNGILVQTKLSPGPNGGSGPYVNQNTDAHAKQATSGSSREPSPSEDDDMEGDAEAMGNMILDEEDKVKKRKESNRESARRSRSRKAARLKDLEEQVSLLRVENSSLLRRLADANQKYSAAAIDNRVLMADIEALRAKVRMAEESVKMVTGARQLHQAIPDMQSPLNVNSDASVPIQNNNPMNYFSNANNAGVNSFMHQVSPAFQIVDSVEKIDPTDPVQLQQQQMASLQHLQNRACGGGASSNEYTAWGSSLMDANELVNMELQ
In short: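 The binding signal for each feature is its fluorescence intensity in arbitrary units. An Axon 4000B scanner was used to read a custom Agilent array that had been made double-stranded with Cy5-dUTP primer extension, blocked with 2% BSA, incubated at 25 °C for 1 h with 200 nM protein in PBS, 2% BSA, salmon testes DNA and 50 µM zinc acetate, and washed. The protein was an N-terminal polyhistidine–DsRed transcription factor fusion from E. coli BL21-CodonPlus, purified on Ni–NTA.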

Compared with “CCACGGATTTAGATAACACGTCACGAGATATACACCCATACGGAGTCACCTAGTGCAG”, “CGAGTTTAGGGACCGCGATGACACAGCGGTACAAGTTTGTCGGAGTCACCTAGTGCAG” is lower in binding signal: 14600 fluorescence intensity (a.u.) for the first, 3510 fluorescence intensity (a.u.) for the second.

Going from “AGAGAGAGGTGATGACATGGCTTACTGACATGTGGGGCCCCGGAGTCACCTAGTGCAG” to “CTGCCGCCACCTCGTCACCGCCCGACCAATCCGCCGCCGCCGGAGTCACCTAGTGCAG”, the binding signal falls from 8410 fluorescence intensity (a.u.) to 4340 fluorescence intensity (a.u.).

Compared with “AATTTAAGTGTATACGTGGCCACCTTAATTACATGGTGGCCGGAGTCACCTAGTGCAG”, “CGTCCACGTCCATCTCCGCCGCTGACAGCACCAGCTCTTCCGGAGTCACCTAGTGCAG” is lower in binding signal: 8130 fluorescence intensity (a.u.) for the first, 5020 fluorescence intensity (a.u.) for the second.

First: CTTCCATCCAACTCTACCTAGCTAGCTTAGCTAGCTCTTACGGAGTCACCTAGTGCAG
Second: GTTGGGGAGCTTAGCTCGCGCGCGGCGCGGTGGATCGCATCGGAGTCACCTAGTGCAG
The binding signal of the first is lower: 3540 fluorescence intensity (a.u.) for the first, 4260 fluorescence intensity (a.u.) for the second.

Compared with “ACACGGATCGAACCCCTCCTCCCCGCCACGTCACCGATCCCGGAGTCACCTAGTGCAG”, “GTCCACGCCCCGTCTCCACGGTCGACGCGGATCAATTCCCCGGAGTCACCTAGTGCAG” is lower in binding signal: 38700 fluorescence intensity (a.u.) for the first, 3220 fluorescence intensity (a.u.) for the second.

First: AATTCCGGCCCAATAGTCACTTGTGTTGGCCACTTCGCCTCGGAGTCACCTAGTGCAG
Second: TCGGGAAAATGGTGCCATGTGTCACTTCGTTATAGCTGATCGGAGTCACCTAGTGCAG
The binding signal of the first is higher: 3350 fluorescence intensity (a.u.) for the first, 3290 fluorescence intensity (a.u.) for the second.

Compared with “AGGAGGAGGAGGAGAACCACAAGACCAAAACCAACCATGGCGGAGTCACCTAGTGCAG”, “TTACTTTTGTACGCTGTGTTATCACTGCACGTAATAATTACGGAGTCACCTAGTGCAG” is lower in binding signal: 3620 fluorescence intensity (a.u.) for the first, 3210 fluorescence intensity (a.u.) for the second.

Going from “CGTTTTCATCTTGCAGGTGGACTTGGATCTTGGGAATTACCGGAGTCACCTAGTGCAG” to “CCTGCTGCTGCTGAGTAGGATAGGTCTCTTTCTGTCTGTCCGGAGTCACCTAGTGCAG”, the binding signal rises from 3530 fluorescence intensity (a.u.) to 4300 fluorescence intensity (a.u.).

First: CAGCGCTCATCTACCCGAGCTCCACGTCACGCATCTCCCTCGGAGTCACCTAGTGCAG
Second: TAGGATATTGATGCTAAAACGTGTCCCCACCAATTTACTGCGGAGTCACCTAGTGCAG
The binding signal of the first is higher: 22500 fluorescence intensity (a.u.) for the first, 3290 fluorescence intensity (a.u.) for the second.

First: AGCTGGCTCCGGCACGTCGCGCCGGACACGAGGGACCTCTCGGAGTCACCTAGTGCAG
Second: TGTTGGACACAACGAAATACGACGCTTCCGTGGCCATCAGCGGAGTCACCTAGTGCAG
The binding signal of the first is lower: 3460 fluorescence intensity (a.u.) for the first, 3660 fluorescence intensity (a.u.) for the second.

Going from “GAAAAGATGACCCCATATTCTCGTGTATTCTTTGACACTTCGGAGTCACCTAGTGCAG” to “GTTGTCGTCGTCACTGCCGCCGCCACCATCGCTGCGCCGCCGGAGTCACCTAGTGCAG”, the binding signal rises from 3390 fluorescence intensity (a.u.) to 4570 fluorescence intensity (a.u.).

First: CGCCGCGCCGACCTCCCCGCCGGCGGCCGCGCGGTGAATCCGGAGTCACCTAGTGCAG
Second: ACTATCACAGGAGGAAGAATGTGATAAACTTACACATCAGCGGAGTCACCTAGTGCAG
The binding signal of the first is lower: 3460 fluorescence intensity (a.u.) for the first, 5630 fluorescence intensity (a.u.) for the second.

First: CAAGCTCTTTTCTCTGACTCCAACACAGTCACCTTCTCATCGGAGTCACCTAGTGCAG
Second: AACACTAGTCTTTCACACGTATTGTTGTACTACATCCGTCCGGAGTCACCTAGTGCAG
The binding signal of the first is lower: 3960 fluorescence intensity (a.u.) for the first, 5610 fluorescence intensity (a.u.) for the second.

Going from “ATTCTTTCTGTCGGATGACAGTTGGCAAATTCATTGATTTCGGAGTCACCTAGTGCAG” to “ATTATACTAAGTGTTGGTCAAATGTTTTAAAGGTTAAATCCGGAGTCACCTAGTGCAG”, the binding signal falls from 3670 fluorescence intensity (a.u.) to 3470 fluorescence intensity (a.u.).

Compared with “AACCGCCACGTCAGATTCGCCGCCCGCCTCTCTCGTCGCCCGGAGTCACCTAGTGCAG”, “TTGCTAAATGATATCAATTAAACGGTGTATCAATTCCATACGGAGTCACCTAGTGCAG” is lower in binding signal: 36000 fluorescence intensity (a.u.) for the first, 3190 fluorescence intensity (a.u.) for the second.

Going from “CGACGCCGCCGAGATCGCCGTCACCCGAATCCTGCGACGCCGGAGTCACCTAGTGCAG” to “ACACAAAATTGATGATGCACCTACCGGTCCGGTAACAATACGGAGTCACCTAGTGCAG”, the binding signal falls from 3580 fluorescence intensity (a.u.) to 3340 fluorescence intensity (a.u.).

Compared with “TTGCGCTGGCGCCAACGCCTCTGCCAACAACTCACACATACGGAGTCACCTAGTGCAG”, “CCGCCTCGGCTCGATCCGCCCATATATTTCCCACGCATTCCGGAGTCACCTAGTGCAG” is higher in binding signal: 3140 fluorescence intensity (a.u.) for the first, 3160 fluorescence intensity (a.u.) for the second.

Going from “AAAGCCAAACAAGTGTCCAAACGGCTAGGAGTCAACCTCGCGGAGTCACCTAGTGCAG” to “GACACTTACAAGCACTGCGGCGTTACCATTTTATGGAACTCGGAGTCACCTAGTGCAG”, the binding signal falls from 41200 fluorescence intensity (a.u.) to 3220 fluorescence intensity (a.u.).

Going from “ATAATCGTGATGTGGTTGTGATATTATCTTTTGTTAATGTCGGAGTCACCTAGTGCAG” to “GTCAAAAGCAAGCAGCCACCTTATCTTCTCCTCCCGGCAGCGGAGTCACCTAGTGCAG”, the binding signal rises from 3890 fluorescence intensity (a.u.) to 18500 fluorescence intensity (a.u.).

Compared with “ATGTGTTGGTACTGGTTTTAGGTTTGAGTGACGCGATCCACGGAGTCACCTAGTGCAG”, “CTTGGCCCATCAAAACGGGTGCCACGTGTCGCGCATCCAACGGAGTCACCTAGTGCAG” is higher in binding signal: 6460 fluorescence intensity (a.u.) for the first, 30100 fluorescence intensity (a.u.) for the second.

Going from “ATAGGAGTTACCCTGCTACAATGCTACAATGCTACAGGCCCGGAGTCACCTAGTGCAG” to “TAGTGCGTCCACATCCAGCGATGGTGGTCAAGGTGACGGCCGGAGTCACCTAGTGCAG”, the binding signal falls from 27800 fluorescence intensity (a.u.) to 3250 fluorescence intensity (a.u.).
